From patent US20230272390A1, “COMPOSITIONS AND METHODS FOR HEMOGLOBIN PRODUCTION” (THE CHILDREN'S HOSPITAL OF PHILADELPHIA, priority 2020, published 2023) come the findings set out here.

At least one result comes from cells or an extract, where the contact may be indirect. Tags and fusion partners may be left off the protein sequences shown.

Data set [1] has as its target T1, ZNF410 ZF1-5 (Homo sapiens) (UniProt Q86VK4).
T1 sequence: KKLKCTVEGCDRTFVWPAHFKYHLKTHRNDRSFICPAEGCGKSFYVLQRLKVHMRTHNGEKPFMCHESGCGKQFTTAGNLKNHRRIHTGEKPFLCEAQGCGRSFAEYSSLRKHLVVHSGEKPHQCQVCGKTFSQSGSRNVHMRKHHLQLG
Briefly: EMSA. The conditions noted are these: supershift with anti-FLAG, protein in a lysate after overexpression, protein details: FLAG (pcDNA3, COS-7 nuclear extract), label: 32P.

In data set [2] the target is T2, ZNF410 full length (Homo sapiens) (UniProt Q86VK4).
T2 sequence: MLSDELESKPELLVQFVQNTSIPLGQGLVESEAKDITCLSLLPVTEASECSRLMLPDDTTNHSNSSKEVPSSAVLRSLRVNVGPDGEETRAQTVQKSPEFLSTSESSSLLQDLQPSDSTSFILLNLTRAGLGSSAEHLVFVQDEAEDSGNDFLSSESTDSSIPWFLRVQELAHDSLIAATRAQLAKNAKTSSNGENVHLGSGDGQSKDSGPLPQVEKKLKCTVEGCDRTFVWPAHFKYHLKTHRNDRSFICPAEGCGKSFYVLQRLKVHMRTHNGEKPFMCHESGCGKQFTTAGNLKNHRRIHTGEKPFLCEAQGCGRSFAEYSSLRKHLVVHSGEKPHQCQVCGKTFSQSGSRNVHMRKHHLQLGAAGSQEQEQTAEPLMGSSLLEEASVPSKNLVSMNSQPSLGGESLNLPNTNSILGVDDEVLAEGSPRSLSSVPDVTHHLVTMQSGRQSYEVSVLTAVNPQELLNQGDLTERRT
Briefly: EMSA. The settings on record: supershift with anti-FLAG, protein in a lysate after overexpression, protein details: N-terminal FLAG (pcDNA3, COS-7 nuclear extract), label: 32P.

In the case of “ACACACGACATCCCATAATATCTTCTGGAG (double strand) [CHD4 EMSA probe 3]”, the binding result in data set [1] and in data set [2] was “binds” in each case.

“GAGCCAGGCATCCCATAATATTCATATTCT (double strand) [CHD4 EMSA probe 2]”: the binding result in data set [1] and in data set [2] was “binds” throughout.

Regarding “GCCTCACCAACCCATAATATTCCCCAGTCT (double strand) [CHD4 EMSA probe 4]”, the binding result in data set [1] and in data set [2] was “binds” each time.

As to “GCCTCATATCCCATAATATTCAGCCCCAT (double strand) [CHD4 EMSA probe 1]”, the binding result in data set [1] (similar intensity over four probes) and in data set [2] (comparable over four probes) was “binds” each time.
